Where no end group is shown, it is not given here.
Test system: dsRNA
Assay: Synchrotron SAXS of peptide-dsRNA complexes
Type: binding
Details: for inter-dsRNA spacing of peptide-dsRNA complex: peptide 10 mg/mL with dsRNA 5 mg/mL; for first peak position q of peptide-dsRNA complex: q10 for square lattices, q1 for columnar lattice

| Substance | inter-dsRNA spacing of peptide-dsRNA complex | first peak position q of peptide-dsRNA complex | nanocrystal size L of peptide-dsRNA complex (average domain size from first peak width) |
| --- | --- | --- | --- |
| LL37 | 3.65 nm | 0.172 Å^−1 |  |
| LLGDFFRKSKEKIGKEFKRIVQRIKDFLRNLVPR [LL34] | 3.76 nm | 0.167 Å^−1 | 9.0 nm |
